Measured values reported in PubChem BioAssay AID504444 (National Center for Advancing Translational Sciences (NCATS), 2011).
“And” between values parts separate entries of the source, which are not always exact repeats. Identical values can stand only once. Screen size: about 360,000 compounds; about 7,500 (2.1%) were called active. Inconclusive results, whose numbers are uncertain, are shown with a selection of clear calls. The call rests on the fitted dose curve; in most records, active means well fitted inhibition curve with a large enough effect; inconclusive means small, poorly fitted or top-dose-only effect, or effect the other way; inactive means flat fitted curve, though single readings scatter. Where the call is inconclusive, the potency comes from a doubtful curve fit.
On the % scale 0 is the no-effect control and ±100 the full control effect; potency means the concentration at half of the fitted maximal effect.

Experiment: Nrf2 qHTS screen for inhibitors; further: nearly all actives have a fitted effect of over 60% in size
Settings: A549 ARE-Fluc reporter, luciferase luminescence, 18-24 h; activity change, negative = inhibition: at 46 µM (top of the series)
Method in brief: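 In this cell-based qHTS, ARE-driven firefly luciferase in A549 cells reports Nrf2 activity; the luminescent signal after BugLite lysis is the measured value, with a prior CellTiter-Fluor read for cell health.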
In the case of `CCCCN(C)S(=O)(=O)c1ccc(C(=O)Nc2nnc(-c3ccco3)o2)cc1`, the Potency is reported as inconclusive: 20.6 µM [falling, single point]. In the case of `O=C(CSc1ncc2c(n1)-c1ccc(Cl)cc1N(Cc1ccccc1)S2(=O)=O)Nc1ccccc1C(F)(F)F`, the Potency is reported as inconclusive: 16.4 µM [activator, single point]. For `c1ccc(-c2cnc(SCCN3CCOCC3)n2CC2CCCO2)cc1` (configuration not stated), the “activity change, negative = inhibition” value was inactive: 6.1%. With `COc1ccc(S(=O)(=O)N2CCOCC2)cc1NC(=O)CSc1nnc2n1CCCCC2` the Potency was inconclusive: 1.46 µM [activator, partial curve, poor fit]. With `O=C(COc1ccccc1)NCc1ccc(-n2cccc2)cc1` the “activity change, negative = inhibition” value was inactive: 0.428%. For `COc1ccc(CC(=O)Nc2cccc(-c3nnc(-c4ccco4)o3)c2)cc1`, the Potency was active: 6.51 µM. For `Cc1nn(C2CCS(=O)(=O)C2)c2nc(C3CC3)cc(C(=O)Nc3cccc(C#N)c3)c12` (configuration not stated), the “activity change, negative = inhibition” value was inactive: -7.55%. In the case of `N#C/C(=C/c1cccs1)c1nc2ccccc2[nH]1`, the Potency is reported as inconclusive: 11.6 µM [activator, partial curve]. In the case of `CCC(=O)Nc1cc2nn(-c3ccc(C)cc3)nc2cc1C`, the Potency is reported as inconclusive: 291 nM [activator, full curve] and inconclusive: 4.11 µM [activator, full curve]. With `CC(=O)N1CCc2c(sc(NC(=O)CS(=O)(=O)c3ccc(F)cc3)c2C(N)=O)C1` the Potency was inconclusive: 7.31 µM [activator, partial curve, poor fit]. In the case of `CC(C)N(C(C)C)S(=O)(=O)c1ccc(N2CCc3ccccc3C2)nc1`, the Potency is reported as inconclusive: 10.3 µM [activator, partial curve]. For `Clc1ccc(-c2cn3c(n2)-c2ccccc2C3)cc1Cl`, the Potency was inconclusive: 2.59 µM [activator, full curve]. For `O=C(O)/C(=C\c1ccc(-c2ccccc2[N+](=O)[O-])o1)c1ccccc1`, the Potency was inconclusive: 0.103 µM [falling, full curve, poor fit]. With `O=C(c1ccc2c(c1)[nH]c(=S)n1c3ccccc3nc21)N1CCN(c2ncccn2)CC1` the Potency was inconclusive: 23.1 µM [activator, single point]. For `CCN(CC)c1ccc(NC(=O)c2cnc3ccccn3c2=O)c(C)c1`, the Potency was active: 2.91 µM. For `COc1ccc(CN2CSC(=S)N(Cc3ccccc3)C2)cc1`, the “activity change, negative = inhibition” value was inactive: 6.23%. In the case of `Cc1ccc(-c2nn(-c3ccccc3)cc2/C=N/NC(=O)CSc2nnc(C)n2-c2ccccc2)cc1`, the Potency is reported as inconclusive: 29.1 µM [falling, single point]. For `O=C(CCCN1CCC(O)(c2ccc(Br)cc2)CC1)c1ccc(F)cc1`, the Potency was inconclusive: 14.6 µM [activator, partial curve, poor fit]. With `CCOc1nc(Nc2ccc(Cl)cc2)nc(OCC)n1` the Potency was inconclusive: 18.4 µM [falling, single point]. In the case of `CCN(CC)CCCNC(=O)CN1C(=O)COc2ccc(S(=O)(=O)N3CCC(C)CC3)cc21`, the “activity change, negative = inhibition” value is reported as inactive: -2.48%. With `O=C(Nc1ccccc1)Nc1ccc(Br)cc1F` the “activity change, negative = inhibition” value was inactive: 8.14%. With `c1ccc(C2=NN(c3ccccc3)CC2)cc1` the Potency was inconclusive: 18.4 µM [activator, partial curve]. With `CC(=O)Oc1ccc(-c2csc(Nc3ccc(S(N)(=O)=O)cc3)n2)cc1` the Potency was inconclusive: 16.4 µM [falling, single point]. For `Cn1c(SCC(=O)N2CCCC2=O)nc2ccccc2c1=O`, the Potency was inconclusive: 14.6 µM [activator, single point]. With `CCCOc1ccc(C2NC(=S)NC(C)=C2C(=O)c2ccccc2)cc1OC` (configuration not stated) the Potency was inconclusive: 23.1 µM [falling, partial curve, poor fit]. In the case of `COc1cccc(Cn2c(NCc3ccco3)nc3c2c(=O)n(C)c(=O)n3C)c1`, the Potency is reported as active: 8.2 µM. With `O=C(NC1CCC(O)CC1)c1ccc(-c2ccc(Cl)cc2)o1` (configuration not stated) the Potency was inconclusive: 4.11 µM [activator, full curve]. In the case of `O=C(c1cccs1)N(Cc1ccco1)c1ccc(O)cc1`, the “activity change, negative = inhibition” value is reported as inactive: -16.5%. With `COc1ccc(-c2cc(C(=O)N/N=C/c3cccnc3)c3ccccc3n2)c(OC)c1` the Potency was inconclusive: 25.9 µM [activator, single point]. For `COc1cccc(COc2ccc(N(C)S(=O)(=O)c3ccccc3)cc2)c1`, the Potency was inconclusive: 23.1 µM [falling, partial curve, poor fit]. In the case of `O=S(=O)(c1ccc(Cl)cc1)N1CCC2(CC1)OCCN2S(=O)(=O)c1cccs1`, the Potency is reported as inconclusive: 16.4 µM [falling, single point]. With `CC(C)c1cc(C(N)=O)c(NC(=O)c2cccc(COc3ccc(Cl)cc3)c2)s1` the Potency was inconclusive: 6.51 µM [activator, partial curve, poor fit]. In the case of `NC(=O)C1CCN(C(=O)c2ccc3ccccc3c2)CC1`, the Potency is reported as inconclusive: 8.2 µM [activator, partial curve, poor fit]. With `CC(C)Sc1nc2sccc2c(=O)n1-c1ccccc1` the Potency was inconclusive: 29.1 µM [activator, single point]. With `Cc1noc(Cn2c(=O)c3ccccc3n(CC(=O)Nc3ccc(C(C)C)cc3)c2=O)n1` the “activity change, negative = inhibition” value was inactive: -26.8%. For `CCOCc1cnc(C)nc1NCC(=O)c1c(C)[nH]c2ccc(OC)cc12`, the Potency was inconclusive: 20.6 µM [falling, partial curve, poor fit]. For `CCCn1c2ccccc2c2nnc(SC(CC)C(=O)Nc3cc(C)on3)nc21` (configuration not stated), the Potency was inconclusive: 23.1 µM [falling, partial curve]. With `O=C(CN1CCOCC1)Nc1nc2ccc(F)cc2s1` the Potency was inconclusive: 9.2 µM [activator, partial curve, poor fit]. In the case of `O=C(/C=C\c1ccccc1)NCC(=O)N/N=C/c1ccc(O)cc1O`, the Potency is reported as inconclusive: 16.4 µM [falling, single point]. In the case of `CCCCC1CCC(CCCC(C)CCC(=O)O)CC1` (configuration not stated), the Potency is reported as inconclusive: 32.6 µM [falling, partial curve, poor fit]. For `COc1ccccc1CNC(=O)CSc1ccsc1[N+](=O)[O-]`, the Potency was inconclusive: 8.2 µM [activator, partial curve]. In the case of `COc1cccc(-c2n[nH]c3c2C(c2ccccn2)N(C)C3=O)c1` (configuration not stated), the “activity change, negative = inhibition” value is reported as inactive: -1.88%.
